Some of the results follow. The data scatter; read single values as rough.
Tested on: Candida albicans SN425
Test: biofilm OD600 B-score; higher = more biofilm (less inhibition)
Details: 10 µM; assay detail: High-throughput adherence inhibition optical density biofilm assay with C. albicans SN425 in RPMI-1640/MOPS pH 7.0, 384-well plates. …
Description: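 High-throughput adherence inhibition optical density biofilm assay with C. albicans SN425 in RPMI-1640/MOPS pH 7.0, 384-well plates. Compound (10 µM) was present only during the 90 min adherence step, then washed out, and the biofilm grew 24 h without compound. Biofilm was read as OD600 after removing the media. Scores are the difference from the mean in standard deviations and the plate B-score.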

Q: How did the “biofilm OD600 B-score” value turn out when `NNc1nc(Nc2ccccc2)nc(N2CCOCC2)n1` was run?
A: -0.8

Q: `O=C(CCC1CCCCC1)Nc1ncn[nH]1` was tested. Which “biofilm OD600 B-score” value did it give?
A: 1.1

Q: With `Cc1ccc(C)c(NC(=O)c2ccoc2C)c1` as the molecule, how does the “biofilm OD600 B-score” value read?
A: 1.38

Q: How did the “biofilm OD600 B-score” value turn out when `CCCN(CCO)Cc1cc(OC)c(OC)cc1Br` was run?
A: -0.0218

Q: With `O=C(Nc1ccc(N2CCCC2)cc1)c1cccnc1` as the molecule, how does the “biofilm OD600 B-score” value read?
A: -0.36

Q: For `CCC(C)(C)C(=O)Nc1nnc(C)s1`, which “biofilm OD600 B-score” value is on record?
A: 2.34

Q: With `Cc1cccc(NC(=O)c2ccc(Br)o2)n1` as the molecule, how does the “biofilm OD600 B-score” value read?
A: -1.72

Q: Which “biofilm OD600 B-score” value does the source give for `CN1CCC(N(C)Cc2cccs2)CC1` here?
A: 0.0175

Q: How did the “biofilm OD600 B-score” value turn out when `CCC(NC(=O)c1ccccc1NC(=O)c1ccccc1)C(=O)N1CCOCC1` (stereo not given) was run?
A: -1.07

Q: For `COc1ccccc1C(O)c1nccn1C` (stereo not given), which “biofilm OD600 B-score” value is on record?
A: 0.154

Q: `N#CCCn1cc(CO)c(-c2ccc(F)cc2)n1` was tested. Which “biofilm OD600 B-score” value did it give?
A: -0.0162

Q: How did the “biofilm OD600 B-score” value turn out when `OCCn1nc(-c2ccccc2)cc1-c1ccccc1` was run?
A: -3

Q: `Cc1ccsc1CN1CCN(CCO)CC1` was tested. Which “biofilm OD600 B-score” value did it give?
A: -0.917

Q: With `COc1cc(NC(=O)c2ccc(C)o2)c(OC)cc1Cl` as the molecule, how does the “biofilm OD600 B-score” value read?
A: 1.49

Q: With `Cc1cc(N)n2nc(-c3ccccc3)cc2n1` as the molecule, how does the “biofilm OD600 B-score” value read?
A: 2.1

Q: With `COc1cccc(C(=O)Nc2ccccc2C(=O)NC(C)C)c1` as the molecule, how does the “biofilm OD600 B-score” value read?
A: 0.533

Q: For `CCSc1nnc(NC(=O)c2ccoc2C)s1`, which “biofilm OD600 B-score” value is on record?
A: -1.55

Q: `COc1cc(OC)cc(C(=O)Nc2nc(C)c(C)s2)c1` was tested. Which “biofilm OD600 B-score” value did it give?
A: 2.65

Q: Which “biofilm OD600 B-score” value does the source give for `O=C(NCC1CCCO1)NC1CCCCC1` (stereo not given) here?
A: -0.111

Q: For `Nc1ncc2c(n1)CC(c1cccs1)CC2=O` (stereo not given), which “biofilm OD600 B-score” value is on record?
A: 0.441

Q: For `Cc1cc(C(=O)Nc2ccc3c(c2)OCCO3)co1`, which “biofilm OD600 B-score” value is on record?
A: -1.96

Q: How did the “biofilm OD600 B-score” value turn out when `Cc1cccc(NC(=O)c2ccc3ccccc3n2)n1` was run?
A: 1.8

Q: Which “biofilm OD600 B-score” value does the source give for `O=C(Nc1ccccc1C(=O)N1CCCC1)c1ccc(CN2CCOCC2)cc1` here?
A: -0.919

Q: `Cc1ccc(NC(=O)Nc2ccc3snnc3c2)cc1` was tested. Which “biofilm OD600 B-score” value did it give?
A: 0.832

Q: For `CCN(CC)S(=O)(=O)c1cc(Cl)c(OC)cc1Cl`, which “biofilm OD600 B-score” value is on record?
A: -0.547

Q: Which “biofilm OD600 B-score” value does the source give for `COc1ccccc1C(=O)NCCN1CCOCC1` here?
A: -0.0511

Q: `Cc1ccc(Nc2ccc(C(=O)O)cc2N)cc1` was tested. Which “biofilm OD600 B-score” value did it give?
A: -0.996

Q: For `O=C(O)C1C2CCC(C2)C1C(=O)NCC1CCCO1` (stereo not given), which “biofilm OD600 B-score” value is on record?
A: 1.13

Q: For `CCn1c(=N)c(C#N)cc2c(=O)n3cc(C)ccc3nc21`, which “biofilm OD600 B-score” value is on record?
A: -0.632

Q: With `O=C(O)C1CCCCC1C(=O)N1CCCC1` (stereo not given) as the molecule, how does the “biofilm OD600 B-score” value read?
A: 1.54

Q: How did the “biofilm OD600 B-score” value turn out when `Cc1ccc(N2CC(C(N)=O)CC2=O)cc1C` (stereo not given) was run?
A: 0.552

Q: For `CCN(CC)C(=O)c1ccccc1NC(=O)c1ccco1`, which “biofilm OD600 B-score” value is on record?
A: -1.85

Q: For `COc1cccc(NC(=O)CCCC(=O)O)c1`, which “biofilm OD600 B-score” value is on record?
A: -0.325

Q: `COc1ccc(C(C)(C)C)cc1NC(=O)C1CCCCC1C(=O)O` (stereo not given) was tested. Which “biofilm OD600 B-score” value did it give?
A: 0.033

Q: With `COc1cc(C)c(S(=O)(=O)NCc2cccnc2)cc1C` as the molecule, how does the “biofilm OD600 B-score” value read?
A: 0.771

Q: Which “biofilm OD600 B-score” value does the source give for `CCOC(=O)Nc1nc(-c2ccccc2)c(C)s1` here?
A: 0.0861

Q: Which “biofilm OD600 B-score” value does the source give for `COc1c[nH]n(C2CCCCC2)c(=O)c1=O` here?
A: -1.52

Q: `COc1cccc(C(=O)Nc2ccccc2N2CCOCC2)c1` was tested. Which “biofilm OD600 B-score” value did it give?
A: -2.51

Q: `CC(CC(=O)NCC1CCCO1)c1ccccc1` (stereo not given) was tested. Which “biofilm OD600 B-score” value did it give?
A: 2.36

Q: With `CCOc1ccccc1N1CCN(C(=O)CC)CC1` as the molecule, how does the “biofilm OD600 B-score” value read?
A: 0.611
